These are yes or no findings as the source states them, for the method shown. In cells and extracts the contact can be indirect. Some entries that bind do so weakly or less than the wild type.

By UniProt entry, the sequences of proteins in these tests, tags left out. Where a name states a change or a piece, a line headed by the entry shows the natural chain unless it says otherwise.
UniProt Q86WV6: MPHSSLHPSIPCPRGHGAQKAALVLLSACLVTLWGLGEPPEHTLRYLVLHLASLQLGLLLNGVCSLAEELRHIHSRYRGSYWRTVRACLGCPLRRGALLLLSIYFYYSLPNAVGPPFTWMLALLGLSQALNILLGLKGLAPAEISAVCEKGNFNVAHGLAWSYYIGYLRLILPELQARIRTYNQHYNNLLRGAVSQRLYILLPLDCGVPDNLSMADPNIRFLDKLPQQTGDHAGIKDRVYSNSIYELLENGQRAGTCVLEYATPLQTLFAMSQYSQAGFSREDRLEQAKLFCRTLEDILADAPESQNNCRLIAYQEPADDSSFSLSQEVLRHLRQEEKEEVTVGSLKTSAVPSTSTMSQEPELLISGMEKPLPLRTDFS

This is an account of results in PMC9381507.

The target of test [1] is T1, Sting (murine, endogenous) (mouse (endogenous in BMDMs)) (UniProt Q3TBT3).
T1 sequence: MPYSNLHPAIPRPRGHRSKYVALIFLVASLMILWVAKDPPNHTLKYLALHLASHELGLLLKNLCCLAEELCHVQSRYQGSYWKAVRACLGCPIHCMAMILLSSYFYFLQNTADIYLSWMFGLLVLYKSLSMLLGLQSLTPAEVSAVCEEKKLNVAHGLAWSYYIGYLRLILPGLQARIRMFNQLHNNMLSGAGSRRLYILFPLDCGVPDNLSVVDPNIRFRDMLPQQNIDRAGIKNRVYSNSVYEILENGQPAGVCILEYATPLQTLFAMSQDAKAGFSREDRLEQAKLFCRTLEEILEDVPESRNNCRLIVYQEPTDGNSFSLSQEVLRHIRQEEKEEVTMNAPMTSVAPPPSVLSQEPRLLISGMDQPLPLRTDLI
Kind of test: co-IP; endogenous proteins, BMDMs infected with HSV-1 for the indicated times (WT and, in Fig. 4d, Irf8-/- BMDMs); NP-40 lysis buffer, washes with 500 mM NaCl.

The target of test [2] is STING N154S (human) (UniProt Q86WV6). Kind of test: co-IP; transiently transfected HEK293T cells (HEK293 with or without cGAMP for 4 h in Fig. 5c; cells of Fig. S4 not shown); NP-40 lysis buffer, 4 °C for 3 h with antibody and Protein-G Sepharose, washes with 500 mM NaCl.
The target of test [3] is STING V155M (human) (UniProt Q86WV6). The test is described as above.
Test [4] deals with STING (human) (UniProt Q86WV6). The description is as above.
The target in test [5] is STING (human) (UniProt Q86WV6). Kind of test: co-IP; transfected cells with a third protein or fragment overexpressed as competitor (Fig. S4).
For test [6], the target named is T2, interferon regulatory factor 8 (IRF8) (human) (UniProt Q02556).
T2 sequence: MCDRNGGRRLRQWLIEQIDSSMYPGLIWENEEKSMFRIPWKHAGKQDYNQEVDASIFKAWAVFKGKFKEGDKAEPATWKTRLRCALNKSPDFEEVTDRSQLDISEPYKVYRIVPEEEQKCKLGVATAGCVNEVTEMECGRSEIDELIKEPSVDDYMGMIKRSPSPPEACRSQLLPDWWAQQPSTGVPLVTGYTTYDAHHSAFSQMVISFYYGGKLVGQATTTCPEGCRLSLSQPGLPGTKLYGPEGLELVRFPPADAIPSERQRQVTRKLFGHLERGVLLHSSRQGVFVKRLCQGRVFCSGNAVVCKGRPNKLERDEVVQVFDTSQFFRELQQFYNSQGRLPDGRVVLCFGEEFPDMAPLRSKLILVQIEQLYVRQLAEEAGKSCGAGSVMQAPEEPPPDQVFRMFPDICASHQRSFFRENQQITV
The description is as above.

B1: Irf3 (murine, endogenous) (protein, UniProt P70671 1-419)
chain: METPKPRILPWLVSQLDLGQLEGVAWLDESRTRFRIPWKHGLRQDAQMADFGIFQAWAEASGAYTPGKDKPDVSTWKRNFRSALNRKEVLRLAADNSKDPYDPHKVYEFVTPGARDFVHLGASPDTNGKSSLPHSQENLPKLFDGLILGPLKDEGSSDLAIVSDPSQQLPSPNVNNFLNPAPQENPLKQLLAEEQWEFEVTAFYRGRQVFQQTLFCPGGLRLVGSTADMTLPWQPVTLPDPEGFLTDKLVKEYVGQVLKGLGNGLALWQAGQCLWAQRLGHSHAFWALGEELLPDSGRGPDGEVHKDKDGAVFDLRPFVADLIAFMEGSGHSPRYTLWFCMGEMWPQDQPWVKRLVMVKVVPTCLKELLEMAREGGASSLKTVDLHISNSQPISLTSDQYKAYLQDLVEDMDFQATGNI
On to B1, for which, in test [1], the binding entry was “binds”.

B2: interferon regulatory factor 8 (IRF8) (protein, UniProt Q02556 1-426)
chain: MCDRNGGRRLRQWLIEQIDSSMYPGLIWENEEKSMFRIPWKHAGKQDYNQEVDASIFKAWAVFKGKFKEGDKAEPATWKTRLRCALNKSPDFEEVTDRSQLDISEPYKVYRIVPEEEQKCKLGVATAGCVNEVTEMECGRSEIDELIKEPSVDDYMGMIKRSPSPPEACRSQLLPDWWAQQPSTGVPLVTGYTTYDAHHSAFSQMVISFYYGGKLVGQATTTCPEGCRLSLSQPGLPGTKLYGPEGLELVRFPPADAIPSERQRQVTRKLFGHLERGVLLHSSRQGVFVKRLCQGRVFCSGNAVVCKGRPNKLERDEVVQVFDTSQFFRELQQFYNSQGRLPDGRVVLCFGEEFPDMAPLRSKLILVQIEQLYVRQLAEEAGKSCGAGSVMQAPEEPPPDQVFRMFPDICASHQRSFFRENQQITV
For B2, the binding result in test [2], in test [3], in test [4] and in test [5] was “binds” each time.

B3: N-terminal DBD (aa1-200) of IRF8 (domain or fragment, UniProt Q02556 1-200)
chain: MCDRNGGRRLRQWLIEQIDSSMYPGLIWENEEKSMFRIPWKHAGKQDYNQEVDASIFKAWAVFKGKFKEGDKAEPATWKTRLRCALNKSPDFEEVTDRSQLDISEPYKVYRIVPEEEQKCKLGVATAGCVNEVTEMECGRSEIDELIKEPSVDDYMGMIKRSPSPPEACRSQLLPDWWAQQPSTGVPLVTGYTTYDAHHS
On to B3, for which the binding result in test [6] is recorded as “binds”.

B4: CTT (aa375-426) of IRF8 (domain or fragment, UniProt Q02556 375-426)
chain: RQLAEEAGKSCGAGSVMQAPEEPPPDQVFRMFPDICASHQRSFFRENQQITV
As for B4, the binding result in test [6] is listed as “binds”.
